Part of at least one peptide drawing is inferred or uncertain, most often the ends. Where a SMILES comes first, the peptide text is derived from it. The star is where a group is joined. X1 = CC1(C)C(/C=C/C=C/C=C/C=C2/N(CCCCCC(=O)*)c3ccc4ccccc4c3C2(C)C)=[N+](CCCCS(=O)(=O)[O-])c2ccc3ccccc3c21
Test system: LN-229 glioma flank tumor
Assay: Ex vivo fluorescence of excised tumors
Type: in vivo, mice
Conditions: 24 h
Text: All applicable institutional and/or NIH guidelines for the care and use of animals were followed. The Case Western Reserve University Institutional Animal Care and Use Committee reviewed and approved the animal protocols. Outbred homozygous female nude mice (Fox1^nu/Fox1^nu) were purchased from Jackson Laboratory, Bar Harbor, ME, USA. Details of the human glioblastoma LN-229 cell line have been described previously. LN-229 cells express the PTPμ biomarker and have been used in previous studies for evaluating PTPμ-targeted agents using different imaging modalities. Flank tumors were started in the right flank of mice at approximately 7 weeks of age by injecting a mixture of 2×10^6 cells and Matrigel® Matrix (Corning®, Corning Inc., Corning, NY, USA). Experiments were performed in mice 4 to 8 weeks after implanting the tumors.
The IVIS Spectrum In vivo Imaging System and Living Image analysis software, (Perkin Elmer, Hopkinton, MA, USA) were used for acquisition and analysis of mouse images. Prior to the experiment, mice were weighed, and baseline images acquired using the appropriate filter sets and the autoexposure setting. Three filter sets for excitation/emission were used: 745 nm/800 nm, 745 nm/820 nm, 745 nm/840 nm. The filter set showing highest fluorescence intensity for a fluorophore was used throughout for that dye. For ICG, 745 nm/820 nm was used and for IRDye® 800CW and Tide Fluor™ 8WS, 745 nm/800 nm was used. Agent stocks were diluted in saline or PBS to ˜100 μM and the volume needed for the desired dose of 300 nmol/kg or 400 nmol/kg calculated. Doses were loaded into polyurethane tubing and connected to a 1 mL syringe as previously described. Mice were anesthetized in an induction chamber with 2% isoflurane-oxygen and moved onto a 37° C. heated platform with a nose cone. 26-gauge veterinary catheters were placed in each tail and the preloaded tubing was connected. Agents were injected over 30 sec, catheters were removed, and animals placed in the prepared Spectrum imaging chamber. Images were acquired beginning 10 min after injecting the agents. For SBK2-CCLE-IR800 and Scram-CCLE-IR800, images were acquired every 10 min for 60 min. For the ICG-labeled and TF8WS-labeled peptides, images were acquired at 10 min, 30 min, 1 h, 2 h, 4 h, 8 h, and 24 h. At the end of the imaging time, the animals were euthanized by CO2 asphyxiation, and the tumor and other organs excised and imaged on the Spectrum.
Living Image analysis software was used for region of interest (ROI) analysis of the optical data. Images acquired for each time point consist of a fluorescent image superimposed on a photographic image. Binning was set to 1 and in vivo tumor ROIs were manually drawn based on contours visible in the black and white photograph for each timepoint. After outlining the tumor ROIs, fluorescence was measured with the built-in Spectrum function. For excised tumors, kidneys, spleen and liver, ROIs were drawn around the perimeter of the tumor or organ.
LivingImage software measures fluorescence intensity in units of radiant efficiency. For these analyses, average radiant efficiency measurements in (photons/s/cm^2/steradian)/(μW/cm^2) were used for further comparisons to account for differences in tumor and organ size. GraphPad Prism 9 was used for plots and statistical analyses. Where indicated, means for pairs of agents were compared using a two-tailed t-test with Welch's correction and statistical significance was assumed at p<0.05. Welch's correction was used to eliminate assumptions about variance between the groups being compared.

[1] = Tumor, ICG-labeled agents 300 nmol/kg, ICG 400 nmol/kg, Welch's t-test

Structure (SMILES)	p-value, average radiant efficiency of excised tumor vs SBK2-CLE-ICG [1]	p-value, average radiant efficiency of excised tumor vs SBK2-ICG [1]	p-value, average radiant efficiency of excised tumor vs Scram-ICG [1]	excised tumor fluorescence compared to Scram-CLE-ICG (400 nmol/kg)	p-value, average radiant efficiency of excised tumor vs Scram-CLE-ICG [1]
CC(C)C[C@H](NC(=O)[C@H](CC(=O)O)NC(=O)[C@H](CC(N)=O)NC(=O)[C@H](CC(=O)O)NC(=O)[C@@H](NC(=O)CNC(=O)[C@@H](NC(=O)[C@H](CCC(=O)O)NC(=O)[C@@H]1CCCN1C(=O)[C@H](CCC(N)=O)NC(=O)[C@@H](NC(=O)[C@H](Cc1ccccc1)NC(=O)CNC(=O)[C@H](CO)NC(=O)CNC(=O)CNC(=O)[C@H](CO)NC(=O)CNC(=O)CNC(=O)CCCCCN1/C(=C/C=C/C=C/C=C/C2=[N+](CCCCS(=O)(=O)[O-])c3ccc4ccccc4c3C2(C)C)C(C)(C)c2c1ccc1ccccc21)[C@@H](C)O)[C@@H](C)O)[C@@H](C)O)C(=O)N[C@@H](Cc1c[nH]c2ccccc12)C(=O)N[C@@H](CO)C(=O)N[C@H](C(=O)N[C@@H](CC(=O)O)C(=O)N[C@@H](CC(N)=O)C(=O)N[C@@H](CCC(=O)O)C(=O)N[C@@H](CCCCN)C(=O)O)C(C)C [Scram-CLE-ICG] (X1-GGSGGSGFTQPETGTDNDLWSVDNEK-OH)	ns	<0.001	ns		
CC(C)C[C@H](NC(=O)[C@H](CC(=O)O)NC(=O)[C@H](CC(N)=O)NC(=O)[C@H](CC(=O)O)NC(=O)[C@@H](NC(=O)CNC(=O)[C@@H](NC(=O)[C@H](CCC(=O)O)NC(=O)[C@@H]1CCCN1C(=O)[C@H](CCC(N)=O)NC(=O)[C@@H](NC(=O)[C@H](Cc1ccccc1)NC(=O)CNC(=O)CCCCCN1/C(=C/C=C/C=C/C=C/C2=[N+](CCCCS(=O)(=O)[O-])c3ccc4ccccc4c3C2(C)C)C(C)(C)c2c1ccc1ccccc21)[C@@H](C)O)[C@@H](C)O)[C@@H](C)O)C(=O)N[C@@H](Cc1c[nH]c2ccccc12)C(=O)N[C@@H](CO)C(=O)N[C@H](C(=O)N[C@@H](CC(=O)O)C(=O)N[C@@H](CC(N)=O)C(=O)N[C@@H](CCC(=O)O)C(=O)N[C@@H](CCCCN)C(=O)O)C(C)C [Scram-ICG] (X1-GFTQPETGTDNDLWSVDNEK-OH)	ns	<0.001		significantly more fluorescent	ns
